Experimental data from US20190133930A1, “Methods of Anesthetizing Nerve Tissue in the Trigeminal Nerve Pathway and Medical Uses Thereof” (Apollonia, LLC, priority 2014, published 2019).
Counter-ions that a name gives are not always drawn.

Columns and labels:
[1] = MatTek EpiAirway cell monolayer permeability of local anesthetics after excipient pre-treatment; format: in vitro ADME; details: human, pH 6, EpiAirway, 10 mM test article, donor pH 6.0, 37° C., 0.5 hr; excipient: none
[2] = as above; format: in vitro ADME; details: human, pH 6, EpiAirway, 10 mM test article, donor pH 6.0, 37° C., 0.5 hr
Description: Introduction: Three studies were performed to test the ability of various exemplary mucosal absorption enhancers (a fatty acid, a bile salt, a surfactant, and a phospholipid) to promote transport of three exemplary local anesthetic agents (bupivacaine, lidocaine, and tetracaine) across a 3-dimensional MatTek EpiAirway™ cell monolayer. The EpiAirway™ cell line is derived from normal human respiratory airway cells and models the mucosal tissue in the nasal cavity's respiratory airway, the main site of drug absorption following intranasal administration. The MatTek EpiAirway™ cell line has been well correlated to in vivo human intranasal drug absorption (see, e.g., Chemuturi et al., J. Pharm. Sci. 94: 1976-1985, 2005). It is a well-accepted in vitro model of human nasal drug absorption and is an ideal model for intranasal absorption of local anesthetic agents.
EpiAirway™ tissues were treated with the excipients (0.5% sodium caprate, 0.5% sodium deoxycholate, 0.5% polyoxyethylene 9 lauryl ether, and 0.5% lysophosphatidylcholine) for 20 min. The excipients were then washed off the EpiAirway™ tissues. Test articles (10 mM Bupivacaine HCl, 10 mM Lidocaine HCl, and 10 mM Tetracaine HCl) in transport buffer (1.98 g/L glucose in 10 mM HEPES, 1× Hank's Balanced Salt Solution without Mg^2+ and without Ca^2+, pH 6.0) were added to triplicate apical donor wells. The receiver wells contained standard transport buffer. The fluorescent marker Lucifer Yellow and atenolol (10 μM) were also included to monitor monolayer integrity at the end of the assay. The plates were incubated at 37° C. for 30 min. An aliquot of the receiver chamber was removed for analysis.
At the end of the incubation period, the donor plate was removed from the receiver plate. The donor and receiver samples were analyzed and quantified by LC-MS/MS (propranolol used as internal LC-MS standard).
To verify the monolayer integrity, aliquots of the cell buffers were analyzed by fluorescence and LC-MS/MS to determine the transport of the impermeable dye Lucifer Yellow and atenolol, respectively.
Data are expressed as permeability (Papp): Papp=(dQ/dt)/C0A
Where dQ/dt is the rate of permeation, C0 is the initial concentration of test agent, and A is the area of the monolayer.
For mass spectroscopy method development, the signal was optimized for each compound by electrospray ionization (ESI) in positive ionization mode. […]
Samples were analyzed by LC/MS/MS using an Agilent 6410 mass spectrometer coupled with an Agilent 1200 HPLC and a CTC PAL chilled autosampler, all controlled by MassHunter software (Agilent). After separation on a C18 reverse phase HPLC column (Agilent Zorbax StableBond 3.5 um, 2.1×30 mm) using an acetonitrile-water gradient, peaks were analyzed by mass spectrometry using ESI ionization in MRM mode. […]

Papp A→B at 30 min, 10 mM [1]: 8.6 ×10⁻⁶ cm/s | Papp A→B at 30 min, 10 mM ([2]; 20 min pre-treatment with 0.5% Lysophosphatidylcholine): 60.8 ×10⁻⁶ cm/s | Papp A→B at 30 min, 10 mM ([2]; 20 min pre-treatment with 0.5% Polyoxyethylene 9 Lauryl Ether): 71.9 ×10⁻⁶ cm/s | Papp A→B at 30 min, 10 mM ([2]; 20 min pre-treatment with 0.5% Sodium Caprate): 28.9 ×10⁻⁶ cm/s | Papp A→B at 30 min, 10 mM ([2]; 20 min pre-treatment with 0.5% Sodium Deoxycholate): 96.3 ×10⁻⁶ cm/s
Compound: CCN(CC)CC(=O)Nc1c(C)cccc1C [Lidocaine, Lidocaine HCl]
